Results on five molecules are retold here after article PMC6435701.

Chains of the proteins cited; added tags and fusions are not shown.
UniProt O00429: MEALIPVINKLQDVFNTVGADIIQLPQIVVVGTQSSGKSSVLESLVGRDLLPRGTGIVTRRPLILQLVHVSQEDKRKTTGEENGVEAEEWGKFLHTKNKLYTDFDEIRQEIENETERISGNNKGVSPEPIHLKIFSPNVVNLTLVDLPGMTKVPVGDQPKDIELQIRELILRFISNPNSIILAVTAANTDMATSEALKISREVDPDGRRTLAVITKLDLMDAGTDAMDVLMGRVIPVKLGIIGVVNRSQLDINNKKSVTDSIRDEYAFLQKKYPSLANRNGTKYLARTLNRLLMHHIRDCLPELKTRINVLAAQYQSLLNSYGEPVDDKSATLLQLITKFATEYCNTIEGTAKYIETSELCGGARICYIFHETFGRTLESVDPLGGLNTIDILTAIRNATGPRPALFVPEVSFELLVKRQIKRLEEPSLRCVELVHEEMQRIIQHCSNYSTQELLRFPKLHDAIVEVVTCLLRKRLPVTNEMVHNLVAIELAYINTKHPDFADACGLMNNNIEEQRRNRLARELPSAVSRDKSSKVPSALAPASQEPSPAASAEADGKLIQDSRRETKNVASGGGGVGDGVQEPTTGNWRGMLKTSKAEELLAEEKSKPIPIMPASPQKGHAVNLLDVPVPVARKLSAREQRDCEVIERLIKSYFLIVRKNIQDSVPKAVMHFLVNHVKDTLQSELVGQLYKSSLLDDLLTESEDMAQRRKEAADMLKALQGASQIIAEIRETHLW

Experiment [1] has as its target Dynamin-related protein 1 (human (endogenous in iPS-derived neurons, fibroblasts, postmortem brain)) (UniProt O00429). The experiment in a line: affinity purification with mass spectrometry; 3 mg lysate (10 mM HEPES-NaOH pH 7.9, 150 mM NaCl, 1 mM EGTA, 1% Triton X-100) of neurons derived from HD patient iPS cells, IP with anti-Drp1 antibody overnight, protein A/G beads, LC-MS/MS; hits listed are found in HD and not in normal-subject cells.

The target in experiment [2] is Dynamin-related protein 1 (human (endogenous in iPS-derived neurons, fibroblasts, postmortem brain)), O00429. Described as above. The settings on record: remark: other sources report otherwise.

No constants are given. Whether binding was seen depends on the method and setting. In cells and extracts the contact can be indirect. These calls come from enrichment with a bait or labelling near it, and not all partners need be listed.

B1: ATP synthase subunit b, mitochondrial (protein, UniProt P24539 43-256)
chain: PVPPLPEYGGKVRYGLIPEEFFQFLYPKTGVTGPYVLGTGLILYALSKEIYVISAETFTALSVLGVMVYGIKKYGPFVADFADKLNEQKLAQLEEAKQASIQHIQNAIDTEKSQQALVQKRHYLFDVQRNNIAMALEVTYRERLYRVYKEVKNRLDYHISVQNMMRRKEQEHMINWVEKHVVQSISTQQEKETIAKCIADLKLLAKKAQAQPVM
For B1, the binding result in experiment [1] is given as “binds”.

B2: Thioredoxin-dependent peroxide reductase, mitochondrial (protein, UniProt P30048 62-256)
chain: APAVTQHAPYFKGTAVVNGEFKDLSLDDFKGKYLVLFFYPLDFTFVCPTEIVAFSDKANEFHDVNCEVVAVSVDSHFSHLAWINTPRKNGGLGHMNIALLSDLTKQISRDYGVLLEGSGLALRGLFIIDPNGVIKHLSVNDLPVGRSVEETLRLVKAFQYVETHGEVCPANWTPDSPTIKPSPAASKEYFQKVNQ
Consider B2, for which the binding result in experiment [1] is listed as “binds”.

B3: ATPase family AAA domain-containing protein 3A, Q9NVI7-2 1-586 (protein)
chain: MSWLFGINKGPKGEGAGPPPPLPPAQPGAEGGGDRGLGDRPAPKDKWSNFDPTGLERAAKAARELEHSRYAKDALNLAQMQEQTLQLEQQSKLKEYEAAVEQLKSEQIRAQAEERRKTLSEETRQHQARAQYQDKLARQRYEDQLKQQQLLNEENLRKQEESVQKQEAMRRATVEREMELRHKNEMLRVEAEARARAKAERENADIIREQIRLKAAEHRQTVLESIRTAGTLFGEGFRAFVTDWDKVTATVAGLTLLAVGVYSAKNATLVAGRFIEARLGKPSLVRETSRITVLEALRHPIQVSRRLLSRPQDALEGVVLSPSLEARVRDIAIATRNTKKNRSLYRNILMYGPPGTGKTLFAKKLALHSGMDYAIMTGGDVAPMGREGVTAMHKLFDWANTSRRGLLLFVDEADAFLRKRATEKISEDLRATLNAFLYRTGQHSNKFMLVLASNQPEQFDWAINDRINEMVHFDLPGQEERERLVRMYFDKYVLKPATEGKQRLKLAQFDYGRKCSEVARLTEGMSGREIAQLAVSWQATAYASEDGVLTEAMMDTRVQDAVQQHQQKMCWLKAEGPGRGDEPSPS
Take B3: the binding result in experiment [2] is given as “binds”.

B4: Transcription factor A, mitochondrial (protein, UniProt Q00059 43-246)
chain: SSVLASCPKKPVSSYLRFSKEQLPIFKAQNPDAKTTELIRRIAQRWRELPDSKKKIYQDAYRAEWQVYKEEISRFKEQLTPSQIMSLEKEIMDKHLKRKAMTKKKELTLLGKPKRPRSAYNVYVAERFQEAKGDSPQEKLKTVKENWKNLSDSEKELYIQHAKEDETRYHNEMKSWEEQMIEVGRKDLLRRTIKKQRKYGAEEC
Take B4: in experiment [1], the binding result is on record as “binds”.

B5: ATP synthase subunit f, mitochondrial (protein, UniProt P56134 1-94)
chain: MASVGECPAPVPVKDKKLLEVKLGELPSWILMRDFSPSGIFGAFQRGYYRYYNKYINVKKGSISGITMVLACYVLFSYSFSYKHLKHERLRKYH
Take B5: the binding result in experiment [1] is on record as “binds”.
